PubChem BioAssay AID1259425 | University of Nebraska Medical Center – 2018
This is an unselected part of about 14,000 reagents tested. Not all columns of the deposit are shown. The record does not give: the time to read-out.

Screen: 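Compare each knockdown with KSR1 silencing using changes in marker transcripts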 (primary screen)
Cell system: HCT116 human colon cancer cells
Reagent: siRNA pool against human genes, 50 nM siRNA
Measurement: 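mRNA of six signature genes measured together by branched-DNA assay after 50 nM siRNA pool, blank removed, divided by geometric mean of two housekeeping genes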
Direction: BNIP3L mRNA: higher = more BNIP3L transcript after knockdown

Against CXCL14, the entry reads BNIP3L mRNA, set 1 = 0.079.
After knock-down of ATP5F1A, the screen gave BNIP3L mRNA, set 1 = 0.0867.
MCC gave BNIP3L mRNA, set 1 = 0.0639.
For PCDHA10 the deposit lists BNIP3L mRNA, set 1 = 0.108.
ZFX gave BNIP3L mRNA, set 1 = 0.123.
Against HAO1 the deposit lists BNIP3L mRNA, set 1 = 0.118.
PPP1R12A showed BNIP3L mRNA, set 1 = 0.0421.
After knock-down of COA4, the screen gave BNIP3L mRNA, set 1 = 0.103.
For PCGF3 the deposit lists BNIP3L mRNA, set 1 = 0.102.
Silencing of SFMBT2 gave: BNIP3L mRNA, set 1 = 0.095.
With knock-down of UPF1, the screen gave BNIP3L mRNA, set 1 = 0.0715.
With knock-down of TMUB1, the screen gave BNIP3L mRNA, set 1 = 0.319.
Against TFPI2, the entry reads BNIP3L mRNA, set 1 = 0.0866.
After knock-down of CDCA7L, the record shows BNIP3L mRNA, set 1 = 0.107.
USP8 showed BNIP3L mRNA, set 1 = 0.0828.
Depletion of NSMCE4A resulted in: BNIP3L mRNA, set 1 = 0.137.
FGF17 showed BNIP3L mRNA, set 1 = 0.104.
Silencing of OTX1 came out at: BNIP3L mRNA, set 1 = 0.122.
Silencing of SEM1 resulted in: BNIP3L mRNA, set 1 = 0.0483.
Silencing of CNOT7 resulted in: BNIP3L mRNA, set 1 = 0.0705.
Silencing of SLC14A2 came out at: BNIP3L mRNA, set 1 = 0.0985.
Depletion of TM9SF1 came out at: BNIP3L mRNA, set 1 = 0.132.
BLOC1S1 gave BNIP3L mRNA, set 1 = 0.157.
With knock-down of UTP23, the record shows BNIP3L mRNA, set 1 = 0.18.
AMMECR1 scored BNIP3L mRNA, set 1 = 0.196.
With knock-down of SIGLEC6, the screen gave BNIP3L mRNA, set 1 = 0.0715.
After knock-down of TEFM, the screen gave BNIP3L mRNA, set 1 = 0.188.
Silencing of USP40 resulted in: BNIP3L mRNA, set 1 = 0.239.

2 entries already listed, ordered by “BNIP3L mRNA, set 1”, low to high.
MCC → BNIP3L mRNA, set 1 = 0.0639
ATP5F1A → BNIP3L mRNA, set 1 = 0.0867
